Values from PubChem BioAssay AID1053208 (Peter MacCallum Cancer Centre, 2014)
Shown is a random part of about 17,000 reagents tested. Over the whole deposit, 788 (4.7%) got an active call. 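Calls rest on z-score classes alone; an extra cut-off of viability at most 70% of control was not applied to them.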 Entries without a mark were called inactive. Not all columns of the deposit are shown. No sequences are given here.

- Purpose: 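Synthetic lethal interactions between gene loss and doxorubicin in osteosarcoma cells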 (primary screen)
- Cell system: mouse osteosarcoma cells, early-passage culture from an engineered mouse model of fibroblastic bone tumour
- Reagent: siRNA pool against mouse genes, 40 nM
- Time to read-out: about 120 h (48 h before drug, then 72 h with drug)
- Treatment: doxorubicin 100 nM for 72 h, roughly 30-40% inhibitory dose
- Measurement: 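Luminescent ATP signal taken as viability with or without 100 nM doxorubicin for 72 h; mean of two wells set against non-targeting siRNA and turned into robust z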
- Reading the numbers: viability z-score with doxorubicin: higher = more viable cells under doxorubicin; viability z-score without drug: higher = more viable cells with knock-down alone
- Call rule: 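Called active if knock-down leaves viability unchanged without drug (z within -2 to 2) but lowers it with doxorubicin (z at or under -2)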

| Gene | combined z-score class | viability z-score with doxorubicin | viability z-score without drug |
| --- | --- | --- | --- |
| Ms4a4d (GeneID 66607) | low cell count with and without drug | -2.25 | -2.53 |
| Dnaaf10 (GeneID 103784) | no change with or without drug | -0.56 | -0.67 |
| Hey2 (GeneID 15214) | no change with or without drug | 0.45 | 0.51 |
| Raver1 (GeneID 71766) | high cell count with and without drug | 2.81 | 2.7 |
| AI848100 | no change with or without drug | 0.22 | 1.52 |
| Slc13a3 (GeneID 114644) | no change with or without drug | -0.67 | 1.52 |
| Cep250 (GeneID 16328) | low cell count with doxorubicin only (active) | -2.25 | -1.85 |
| Sypl1 (GeneID 19027) | no change with or without drug | -1.12 | 0.51 |
| Gramd1a (GeneID 52857) | low cell count with and without drug | -2.7 | -9.95 |
| Plagl2 (GeneID 54711) | no change with or without drug | 1.01 | 0.51 |
| Gtpbp6 (GeneID 107999) | no change with or without drug | -1.57 | -1.35 |
| Ccdc87 (GeneID 399599) | high cell count without drug only | 1.91 | 3.54 |
| Eif4ebp1 (GeneID 13685) | no change with or without drug | -0.67 | 0.17 |
| Polr2g (GeneID 67710) | no change with or without drug | 1.12 | 0.34 |
| A330035P11Rik (GeneID 319727) | no change with or without drug | -0.11 | -0.51 |
| Or7e168 (GeneID 258519) | no change with or without drug | -0.56 | -1.18 |
| Wnt2b (GeneID 22414) | no change with or without drug | 1.01 | 1.35 |
| Krt14 (GeneID 16664) | no change with or without drug | -0.79 | -1.18 |
| Trex2 (GeneID 24102) | no change with or without drug | -0.22 | 1.18 |
| Slc22a21 (GeneID 56517) | no change with or without drug | 0.67 | -0.34 |
| Sh3rf1 (GeneID 59009) | no change with or without drug | 0.67 | 0.34 |
| Dusp6 (GeneID 67603) | no change with or without drug | 0.22 | -1.18 |
| Ccdc38 (GeneID 237465) | no change with or without drug | 1.8 | 1.69 |
| Speg (GeneID 11790) | no change with or without drug | 0.22 | -0.17 |
| Chchd5 (GeneID 66170) | no change with or without drug | 0 | -0.17 |
| Egfr (GeneID 13649) | no change with or without drug | -0.11 | -0.67 |
| Gmpr2 (GeneID 105446) | no change with or without drug | 0 | -0.17 |
| Spo11 (GeneID 26972) | no change with or without drug | 0.67 | 0.17 |
| Nkain4 (GeneID 58237) | no change with or without drug | -0.9 | -1.01 |
| Gpt2 (GeneID 108682) | no change with or without drug | 1.69 | 0.17 |
| Ncr1 (GeneID 17086) | no change with or without drug | 0.67 | -1.18 |
| Map3k4 (GeneID 26407) | no change with or without drug | 1.12 | -0.17 |
| Or56b1 (GeneID 258309) | no change with or without drug | -0.67 | -1.85 |
| Hnrnpk (GeneID 15387) | no change with or without drug | -0.67 | -1.85 |
| Slc17a2 (GeneID 218103) | no change with or without drug | -1.69 | -0.67 |
| Trmt61a (GeneID 328162) | no change with or without drug | -0.67 | -0.67 |
| Fsd1 (GeneID 240121) | no change with or without drug | -1.8 | -0.51 |
| Zim1 (GeneID 22776) | low cell count with doxorubicin only (active) | -2.14 | 1.35 |
| Atosa (GeneID 235493) | no change with or without drug | 0 | 0.17 |
| Hes3 (GeneID 15207) | no change with or without drug | 0.79 | 1.85 |
| Lhfpl1 (GeneID 237091) | low cell count with and without drug | -2.7 | -2.87 |
| Ube2e1 (GeneID 22194) | no change with or without drug | -1.12 | 0 |
| Eloa (GeneID 27224) | high cell count without drug only | 0.22 | 2.87 |
| Tgtp1 (GeneID 21822) | high cell count without drug only | 0.9 | 2.19 |
| Vmn1r214 (GeneID 171248) | no change with or without drug | -1.12 | -0.17 |
| Clu (GeneID 12759) | no change with or without drug | 0.11 | -0.84 |
| Zscan29 (GeneID 99334) | no change with or without drug | 0.11 | -0.51 |
| Mta2 (GeneID 23942) | no change with or without drug | 1.01 | -0.51 |
| Ror1 (GeneID 26563) | no change with or without drug | 1.57 | -0.17 |
| Rhbdd1 (GeneID 76867) | no change with or without drug | -1.8 | 0.17 |
